In PMC5940392:
No constants are given. Whether binding was seen depends on the method and setting. In cells and extracts the contact can be indirect. Some entries that bind do so weakly or less than the wild type.

The chains behind the UniProt entries cited, without tags or fusion partners.
UniProt Q5VTD9: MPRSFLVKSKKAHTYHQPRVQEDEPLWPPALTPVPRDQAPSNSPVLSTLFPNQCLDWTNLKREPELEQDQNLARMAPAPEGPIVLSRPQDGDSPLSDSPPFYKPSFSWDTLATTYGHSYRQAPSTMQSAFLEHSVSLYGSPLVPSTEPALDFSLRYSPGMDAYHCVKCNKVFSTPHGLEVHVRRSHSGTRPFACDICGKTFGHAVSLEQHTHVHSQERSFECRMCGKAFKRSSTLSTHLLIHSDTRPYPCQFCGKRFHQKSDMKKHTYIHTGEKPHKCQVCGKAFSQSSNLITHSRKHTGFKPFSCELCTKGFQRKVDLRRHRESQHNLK
UniProt Q92769: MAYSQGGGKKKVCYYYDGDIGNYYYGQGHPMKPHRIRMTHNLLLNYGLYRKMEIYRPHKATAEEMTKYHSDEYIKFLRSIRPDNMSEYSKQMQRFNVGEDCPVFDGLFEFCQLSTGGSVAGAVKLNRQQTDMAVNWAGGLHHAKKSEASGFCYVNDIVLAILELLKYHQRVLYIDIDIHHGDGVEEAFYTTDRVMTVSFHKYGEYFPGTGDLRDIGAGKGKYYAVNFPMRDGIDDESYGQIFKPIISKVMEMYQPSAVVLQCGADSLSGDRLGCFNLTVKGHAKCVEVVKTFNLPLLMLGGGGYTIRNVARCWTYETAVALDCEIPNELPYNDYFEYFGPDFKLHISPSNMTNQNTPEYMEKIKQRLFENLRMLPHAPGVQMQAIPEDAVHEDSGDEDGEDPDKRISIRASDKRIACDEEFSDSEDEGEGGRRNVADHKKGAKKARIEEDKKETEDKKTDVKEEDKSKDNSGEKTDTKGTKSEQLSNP
UniProt Q13547: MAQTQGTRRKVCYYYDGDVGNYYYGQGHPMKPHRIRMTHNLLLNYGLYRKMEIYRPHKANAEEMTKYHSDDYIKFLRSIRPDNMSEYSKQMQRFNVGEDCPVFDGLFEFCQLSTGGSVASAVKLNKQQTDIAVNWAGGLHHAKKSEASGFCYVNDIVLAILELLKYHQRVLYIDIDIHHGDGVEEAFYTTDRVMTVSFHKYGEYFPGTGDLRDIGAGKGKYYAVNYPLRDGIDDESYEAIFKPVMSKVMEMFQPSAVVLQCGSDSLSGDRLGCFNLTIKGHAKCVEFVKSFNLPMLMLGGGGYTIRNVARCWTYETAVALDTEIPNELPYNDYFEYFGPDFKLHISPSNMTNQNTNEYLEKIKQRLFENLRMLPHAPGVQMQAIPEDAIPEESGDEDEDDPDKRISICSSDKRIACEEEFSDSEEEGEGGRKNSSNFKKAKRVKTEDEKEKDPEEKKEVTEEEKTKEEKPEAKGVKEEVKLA

Assays:
[1] = molecular target: GFI1B (human (endogenous in HEL)) (UniProt Q5VTD9); experiment: co-IP; HEL cells treated with 2 uM NCD38 for 24 hours; IP with anti-GFI1B antibody, western blot; compared with DMSO
[2] = molecular target: GFI1B (human (endogenous in HEL)) (UniProt Q5VTD9); experiment: co-IP; endogenous proteins of HEL whole-cell lysate (lysis in N450 buffer, diluted with 2 volumes of N0 buffer; 4 C; washes with N150 buffer: 150 mM NaCl, 1% NP-40); IP with anti-LSD1, anti-GFI1B or anti-RUNX1 antibody, normal IgG as control, western blot; untreated cells, also cells treated with DMSO or 2 uM NCD38 for 24 h (LSD1-IP: no impairment; RUNX1-IP: less impaired)
[3] = molecular target: RUNX1 (human (endogenous in HEL)) (UniProt Q01196); experiment: as above

| binding [1] | binding [2] | binding [3] | Substance |
| --- | --- | --- | --- |
| binds weakly | binds | binds | histone deacetylase 2 (from UniProt Q92769 1-488) (enzyme) |
| binds weakly | binds | binds | histone deacetylase 1 (from UniProt Q13547 1-482) (enzyme) |
| binds weakly | binds | binds | RE1 silencing transcription factor corepressor (from UniProt Q9UKL0 1-485) |
